Experimental findings from article PMC9633600 are described below.

Sequences of proteins named here, by UniProt entry; tags and fusion partners are left off. A change or cut given only in a name is not applied to a line headed by its entry. A line that says so, or that is headed by a name, gives the form on record, which may keep a tag or linker.
FGFR2b-HA-APEX2 (P21802, form named): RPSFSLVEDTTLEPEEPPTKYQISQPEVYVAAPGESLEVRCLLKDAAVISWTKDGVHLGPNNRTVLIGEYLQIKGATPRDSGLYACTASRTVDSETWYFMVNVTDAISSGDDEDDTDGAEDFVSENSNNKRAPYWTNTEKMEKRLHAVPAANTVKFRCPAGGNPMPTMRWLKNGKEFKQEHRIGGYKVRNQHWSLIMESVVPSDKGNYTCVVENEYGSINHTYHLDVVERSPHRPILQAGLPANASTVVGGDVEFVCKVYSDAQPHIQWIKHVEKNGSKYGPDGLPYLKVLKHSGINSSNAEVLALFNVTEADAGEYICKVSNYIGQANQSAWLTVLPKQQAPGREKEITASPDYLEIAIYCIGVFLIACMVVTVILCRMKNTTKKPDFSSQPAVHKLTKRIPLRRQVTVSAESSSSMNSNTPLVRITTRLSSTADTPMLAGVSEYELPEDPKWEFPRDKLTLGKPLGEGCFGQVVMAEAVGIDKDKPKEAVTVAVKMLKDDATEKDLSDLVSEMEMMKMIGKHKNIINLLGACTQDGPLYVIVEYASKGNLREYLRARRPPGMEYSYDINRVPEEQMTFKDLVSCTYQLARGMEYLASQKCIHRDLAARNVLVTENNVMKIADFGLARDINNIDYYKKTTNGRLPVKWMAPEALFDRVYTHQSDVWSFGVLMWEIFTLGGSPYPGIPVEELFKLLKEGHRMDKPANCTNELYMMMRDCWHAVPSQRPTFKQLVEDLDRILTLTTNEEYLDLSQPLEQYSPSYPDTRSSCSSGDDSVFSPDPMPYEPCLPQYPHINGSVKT

These are yes or no findings as the source states them, for the method shown. Binding seen in cells or lysates may run through a third protein. These calls come from enrichment with a bait or labelling near it, and not all partners need be listed. For part of these data: Sequences can lack the tags named with a protein.

Test in all cases: proximity labelling; APEX2 fused to the bait in living cells; biotin-phenol 40 min, H2O2 1 min, quenched with Trolox and sodium ascorbate; streptavidin beads pull-down 2 h RT; bound proteins immunoblotted against supernatant and total lysate; cells untreated or FGF10 100 ng/mL for 1, 8 or 40 min
The target of one assay is eGFP-RAB11-APEX2 (UniProt P62491).
In another assay the target is FGFR2b-HA-APEX2 (UniProt P21802).
The target in another assay is T1, eGFP-RAB11-APEX2, P62491.
T1 chain: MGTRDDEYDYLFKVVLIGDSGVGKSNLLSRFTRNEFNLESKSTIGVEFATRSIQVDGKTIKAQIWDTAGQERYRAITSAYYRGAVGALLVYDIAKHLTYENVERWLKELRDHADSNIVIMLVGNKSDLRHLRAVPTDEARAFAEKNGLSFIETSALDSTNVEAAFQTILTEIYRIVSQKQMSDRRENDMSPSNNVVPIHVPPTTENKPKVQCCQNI
Particulars: remark: other sources report otherwise.

B1: RCP (protein, UniProt Q6WKZ4 1-1283)
chain: MSLMVSAGRGLGAVWSPTHVQVTVLQARGLRAKGPGGTSDAYAVIQVGKEKYATSVSERSLGAPVWREEATFELPSLLSSGPAAAATLQLTVLHRALLGLDKFLGRAEVDLRDLHRDQGRRKTQWYKLKSKPGKKDKERGEIEVDIQFMRNNMTASMFDLSMKDKSRNPFGKLKDKIKGKNKDSGSDTASAIIPSTTPSVDSDDESVVKDKKKKSKIKTLLSKSNLQKTPLSQSMSVLPTSKPEKVLLRPGDFQSQWDEDDNEDESSSASDVMSHKRTASTDLKQLNQVNFTLPKKEGLSFLGGLRSKNDVLSRSNVCINGNHVYLEQPEAKGEIKDSSPSSSPSPKGFRKKHLFSSTENLAAGSWKEPAEGGGLSSDRQLSESSTKDSLKSMTLPSYRPAPLVSGDLRENMAPANSEATKEAKESKKPESRRSSLLSLMTGKKDVAKGSEGENPLTVPGREKEGMLMGVKPGEDASGPAEDLVRRSEKDTAAVVSRQGSSLNLFEDVQITEPEAEPESKSEPRPPISSPRAPQTRAVKPRLEVSPEAQPTARLPSPTDSPSSLPPLPSSSGQASVPSELGHGADTQSSESPSVFSSLSSPIAAPISTSTPIESWPLVDRGQAKSEGPPLLPKAELQTESLTPVPNSGSSALGSLFKQPSFPANKGTEDSLMGRTRETGTEKNTSSLELEESLPEQPETGRQEEELPRFPCKKQDYSPSSGEAQEVPFALSLSSDGAVSPVGELAAGGDRDLESQAGSLVESKARDAAEEVAPPLPMGASVPSIDSMMRKLEEMGLNLRKDQKKTKKRVSFSEQLFTEEAVAGAALLVEGHSSCPQELNPAWSVAGNASDGEPPESPHAEDSERESVTTPGPATCGAPASPADHLLLPSQEESFSEVPMSEASSAKDTPLFRMEGEDALVTQYQSKASDHEGLLSDPLSDLQLVSDFKSPIMADLNLSLPSIPEVASDDERIDQVEDDGDQVEDDGETAKSSTLDIGALSLGLVVPCPERGKGPSGEADRLVLGEGLCDFRLQAPQASVTAPSEQTTEFGIHKPHLGKSSSLDKQLPGPSGGEEEKPMGNGSPSPPPGTSLDNPVPSPSPSEIFPVTHSFPSSAHSDTHHTSTAESQKKATAEGSAGRVENFGKRKPLLQAWVSPSETHPVSAQPGAGTGSAKHRLHPVKPMNAMATKVANCSLGTATIISENLNNEVMMKKYSPSDPAFAYAQLTHDELIQLVLKQKETISKKEFQVRELEDYIDNLLVRVMEETPNILRIPTQVGKKAGKM
As to B1, the binding entry with eGFP-RAB11-APEX2 is given as “binds”.

B2: phosphorylated PLCγ (enzyme, UniProt P19174 1-1290)
chain: MAGAASPCANGCGPGAPSDAEVLHLCRSLEVGTVMTLFYSKKSQRPERKTFQVKLETRQITWSRGADKIEGAIDIREIKEIRPGKTSRDFDRYQEDPAFRPDQSHCFVILYGMEFRLKTLSLQATSEDEVNMWIKGLTWLMEDTLQAPTPLQIERWLRKQFYSVDRNREDRISAKDLKNMLSQVNYRVPNMRFLRERLTDLEQRSGDITYGQFAQLYRSLMYSAQKTMDLPFLEASTLRAGERPELCRVSLPEFQQFLLDYQGELWAVDRLQVQEFMLSFLRDPLREIEEPYFFLDEFVTFLFSKENSVWNSQLDAVCPDTMNNPLSHYWISSSHNTYLTGDQFSSESSLEAYARCLRMGCRCIELDCWDGPDGMPVIYHGHTLTTKIKFSDVLHTIKEHAFVASEYPVILSIEDHCSIAQQRNMAQYFKKVLGDTLLTKPVEISADGLPSPNQLKRKILIKHKKLAEGSAYEEVPTSMMYSENDISNSIKNGILYLEDPVNHEWYPHYFVLTSSKIYYSEETSSDQGNEDEEEPKEVSSSTELHSNEKWFHGKLGAGRDGRHIAERLLTEYCIETGAPDGSFLVRESETFVGDYTLSFWRNGKVQHCRIHSRQDAGTPKFFLTDNLVFDSLYDLITHYQQVPLRCNEFEMRLSEPVPQTNAHESKEWYHASLTRAQAEHMLMRVPRDGAFLVRKRNEPNSYAISFRAEGKIKHCRVQQEGQTVMLGNSEFDSLVDLISYYEKHPLYRKMKLRYPINEEALEKIGTAEPDYGALYEGRNPGFYVEANPMPTFKCAVKALFDYKAQREDELTFIKSAIIQNVEKQEGGWWRGDYGGKKQLWFPSNYVEEMVNPVALEPEREHLDENSPLGDLLRGVLDVPACQIAIRPEGKNNRLFVFSISMASVAHWSLDVAADSQEELQDWVKKIREVAQTADARLTEGKIMERRKKIALELSELVVYCRPVPFDEEKIGTERACYRDMSSFPETKAEKYVNKAKGKKFLQYNRLQLSRIYPKGQRLDSSNYDPLPMWICGSQLVALNFQTPDKPMQMNQALFMTGRHCGYVLQPSTMRDEAFDPFDKSSLRGLEPCAISIEVLGARHLPKNGRGIVCPFVEIEVAGAEYDSTKQKTEFVVDNGLNPVWPAKPFHFQISNPEFAFLRFVVYEEDMFSDQNFLAQATFPVKGLKTGYRAVPLKNNYSEDLELASLLIKIDIFPAKENGDLSPFSGTSLRERGSDASGQLFHGRAREGSFESRYQQPFEDFRISQEHLADHFDSRERRAPRRTRVNGDNRL
modifications: phosphotyrosine at 783 (the antibody listed is Phospho-PLCγ1 (Tyr783))
Regarding B2, the binding entry in the assay with FGFR2b-HA-APEX2 was “binds”.

B3: RAB25, P57735 1-213 (protein)
chain: MGNGTEEDYNFVFKVVLIGESGVGKTNLLSRFTRNEFSHDSRTTIGVEFSTRTVMLGTAAVKAQIWDTAGLERYRAITSAYYRGAVGALLVFDLTKHQTYAVVERWLKELYDHAEATIVVMLVGNKSDLSQAREVPTEEARMFAENNGLLFLETSALDSTNVELAFETVLKEIFAKVSKQRQNSIRTNAITLGSAQAGQEPGPGEKRACCISL
As for B3, the binding result with eGFP-RAB11-APEX2, P62491 is “binds”.
